Data as given in US9731027B2 (Ipsen Pharma S.A.S., priority 2012, dated 2017).

Assay: general procedure: Fmoc solid-phase peptide synthesis; Rink amide MBHA resin; pre-loaded Fmoc-Phe-2ClTrt / Fmoc-Tyr(tBu)-2-ClTrt resin 0.58 mmol/g; HBTU/HOBt/DIEA; HCTU
Details: conjugation step, HPLC / UPLC

Dop1-psi(CH2NH)-cyclo(DLys-Arg-Phe-4Pal-DTrp-Lys-Thr-Tyr)
final purity (method not given): 94%
